The values that follow come from patent US6387681.

This data set relates to NheI methylase (M.NheI) (Neisseria mucosa heidelbergensis). The experiment in a line: activity in cells. The settings on record: plasmids carrying nheIM resistant to NheI digestion; 11 of 18 pACYC clones resistant; protein in cells; only the site is given.

The exact form of at least one protein or probe is not confirmed.

Take “GCTAGC (double strand) [NheI site in M.NheI-expressing plasmid DNA]”: the “activity on this sequence” value is recorded as “active”.
